No constants are given. Whether binding was seen depends on the method and setting. Some results given as binding are weak or reduced against the parent protein; the word gives no strength.
Target: T1, α-dystroglycan of control (Pomk^LoxP/LoxP) mouse skeletal muscle (mouse (endogenous in quadriceps muscle)) (UniProt Q62165)
T1 sequence (chain, O-mannose-linked glycan ending in full-length matriglycan): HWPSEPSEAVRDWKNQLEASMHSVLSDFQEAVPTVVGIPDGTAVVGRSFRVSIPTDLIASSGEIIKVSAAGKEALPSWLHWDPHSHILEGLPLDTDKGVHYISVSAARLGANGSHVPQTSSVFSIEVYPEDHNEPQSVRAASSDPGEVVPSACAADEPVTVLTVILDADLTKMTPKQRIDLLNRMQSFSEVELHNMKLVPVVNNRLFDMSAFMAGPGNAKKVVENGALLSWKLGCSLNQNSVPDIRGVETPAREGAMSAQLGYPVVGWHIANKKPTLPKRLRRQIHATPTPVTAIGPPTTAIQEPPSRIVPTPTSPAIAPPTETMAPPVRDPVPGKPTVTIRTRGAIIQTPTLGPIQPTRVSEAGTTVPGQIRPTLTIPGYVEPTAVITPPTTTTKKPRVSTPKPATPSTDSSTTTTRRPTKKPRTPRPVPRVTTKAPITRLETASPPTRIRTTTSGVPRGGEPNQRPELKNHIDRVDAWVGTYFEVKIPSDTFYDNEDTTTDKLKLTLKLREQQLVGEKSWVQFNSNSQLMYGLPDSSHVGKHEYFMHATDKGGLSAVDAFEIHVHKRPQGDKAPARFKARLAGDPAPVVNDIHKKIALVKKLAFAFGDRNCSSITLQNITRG
Test: ELISA; solid-phase binding assay: WGA eluates diluted 1:50 in TBS coated on polystyrene ELISA microplates overnight at 4°C; laminin-111; detected with L9393 and HRP-conjugated anti-rabbit IgG; read as relative Bmax; some samples digested with α-xylosidase and β-glucuronidase (laminin binding reduced); only the binder purified

Sequences of proteins named here, by UniProt entry; tags and fusion partners are left off. A change or cut given only in a name is not applied to a line headed by its entry.
UniProt P19137: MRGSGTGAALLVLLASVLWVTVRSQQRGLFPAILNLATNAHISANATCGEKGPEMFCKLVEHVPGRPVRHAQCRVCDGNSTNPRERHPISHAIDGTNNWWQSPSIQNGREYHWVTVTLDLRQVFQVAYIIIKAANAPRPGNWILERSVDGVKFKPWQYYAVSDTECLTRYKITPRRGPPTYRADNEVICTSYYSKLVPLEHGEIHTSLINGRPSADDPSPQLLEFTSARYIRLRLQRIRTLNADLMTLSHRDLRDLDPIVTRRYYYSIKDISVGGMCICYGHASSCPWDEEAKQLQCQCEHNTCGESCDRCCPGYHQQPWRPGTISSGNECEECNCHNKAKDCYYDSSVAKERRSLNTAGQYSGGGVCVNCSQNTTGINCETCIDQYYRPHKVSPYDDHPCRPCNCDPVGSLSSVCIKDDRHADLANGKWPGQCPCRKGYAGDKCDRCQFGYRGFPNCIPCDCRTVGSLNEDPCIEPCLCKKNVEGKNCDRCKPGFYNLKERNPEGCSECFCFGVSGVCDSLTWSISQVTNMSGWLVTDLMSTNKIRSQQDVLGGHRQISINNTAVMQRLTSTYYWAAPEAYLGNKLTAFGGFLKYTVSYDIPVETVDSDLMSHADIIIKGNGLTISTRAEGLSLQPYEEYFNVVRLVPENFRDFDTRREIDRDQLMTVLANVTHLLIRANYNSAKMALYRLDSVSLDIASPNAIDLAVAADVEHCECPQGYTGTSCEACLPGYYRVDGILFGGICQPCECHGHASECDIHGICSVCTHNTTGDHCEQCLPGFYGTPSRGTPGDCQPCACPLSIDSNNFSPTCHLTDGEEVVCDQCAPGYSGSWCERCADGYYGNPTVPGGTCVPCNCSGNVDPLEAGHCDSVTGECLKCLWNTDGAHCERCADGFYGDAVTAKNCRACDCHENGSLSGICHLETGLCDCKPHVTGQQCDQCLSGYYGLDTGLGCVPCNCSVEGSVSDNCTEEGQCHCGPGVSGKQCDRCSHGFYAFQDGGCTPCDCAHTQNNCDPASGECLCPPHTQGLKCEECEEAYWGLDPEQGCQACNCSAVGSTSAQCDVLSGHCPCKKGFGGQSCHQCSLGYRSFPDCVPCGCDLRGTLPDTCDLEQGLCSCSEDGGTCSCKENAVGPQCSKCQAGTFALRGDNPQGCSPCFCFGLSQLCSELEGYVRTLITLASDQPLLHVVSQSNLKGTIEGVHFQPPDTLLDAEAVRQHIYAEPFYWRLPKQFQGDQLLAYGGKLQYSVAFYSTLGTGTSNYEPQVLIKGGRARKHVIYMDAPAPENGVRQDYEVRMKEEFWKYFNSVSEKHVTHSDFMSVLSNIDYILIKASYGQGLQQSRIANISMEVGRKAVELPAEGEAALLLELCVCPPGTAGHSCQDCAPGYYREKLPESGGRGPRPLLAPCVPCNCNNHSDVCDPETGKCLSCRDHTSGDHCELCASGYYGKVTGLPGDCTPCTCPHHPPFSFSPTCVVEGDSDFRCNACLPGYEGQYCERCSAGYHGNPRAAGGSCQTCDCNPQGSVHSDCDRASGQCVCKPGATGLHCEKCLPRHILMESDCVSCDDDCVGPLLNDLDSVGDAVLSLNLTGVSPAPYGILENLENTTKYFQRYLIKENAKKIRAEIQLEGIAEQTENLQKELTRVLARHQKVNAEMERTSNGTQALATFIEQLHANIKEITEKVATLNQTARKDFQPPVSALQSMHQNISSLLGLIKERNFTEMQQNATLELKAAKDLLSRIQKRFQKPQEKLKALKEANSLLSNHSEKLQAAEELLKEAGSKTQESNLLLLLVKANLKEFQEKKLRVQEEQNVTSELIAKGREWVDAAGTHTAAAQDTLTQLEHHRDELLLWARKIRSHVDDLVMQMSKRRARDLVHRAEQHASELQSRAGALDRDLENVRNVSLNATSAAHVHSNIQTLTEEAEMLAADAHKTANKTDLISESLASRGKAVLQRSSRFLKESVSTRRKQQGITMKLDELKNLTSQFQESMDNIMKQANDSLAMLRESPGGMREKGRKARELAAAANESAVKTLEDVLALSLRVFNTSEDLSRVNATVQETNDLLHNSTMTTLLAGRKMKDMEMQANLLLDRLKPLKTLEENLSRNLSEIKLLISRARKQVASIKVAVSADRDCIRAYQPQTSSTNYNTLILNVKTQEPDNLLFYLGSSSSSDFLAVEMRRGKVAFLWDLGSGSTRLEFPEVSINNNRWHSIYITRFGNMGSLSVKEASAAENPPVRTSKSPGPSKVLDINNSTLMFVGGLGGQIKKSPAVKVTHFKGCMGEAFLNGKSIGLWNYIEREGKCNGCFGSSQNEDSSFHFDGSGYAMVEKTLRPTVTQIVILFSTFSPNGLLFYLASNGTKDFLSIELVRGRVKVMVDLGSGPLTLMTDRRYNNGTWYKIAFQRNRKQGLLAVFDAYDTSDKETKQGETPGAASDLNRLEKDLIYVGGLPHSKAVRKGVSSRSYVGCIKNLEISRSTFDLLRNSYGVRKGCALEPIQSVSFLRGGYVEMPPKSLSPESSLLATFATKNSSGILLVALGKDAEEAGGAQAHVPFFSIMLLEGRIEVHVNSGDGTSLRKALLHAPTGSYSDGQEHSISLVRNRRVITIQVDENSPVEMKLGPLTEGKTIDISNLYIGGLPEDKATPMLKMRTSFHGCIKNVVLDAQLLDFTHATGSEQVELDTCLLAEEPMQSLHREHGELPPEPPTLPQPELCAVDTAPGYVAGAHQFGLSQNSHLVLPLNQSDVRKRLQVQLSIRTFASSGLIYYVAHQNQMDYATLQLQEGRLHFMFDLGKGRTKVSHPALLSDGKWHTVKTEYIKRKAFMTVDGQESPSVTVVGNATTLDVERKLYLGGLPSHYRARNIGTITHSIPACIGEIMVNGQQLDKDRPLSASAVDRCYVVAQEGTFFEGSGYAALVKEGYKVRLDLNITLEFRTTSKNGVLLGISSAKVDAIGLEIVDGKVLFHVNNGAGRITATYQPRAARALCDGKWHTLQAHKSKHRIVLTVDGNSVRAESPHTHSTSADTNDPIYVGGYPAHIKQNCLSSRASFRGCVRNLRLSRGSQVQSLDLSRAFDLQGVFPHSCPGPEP

laminin-111 (mouse Engelbreth-Holm-Swarm (EHS) laminin) (from UniProt P19137 25-3083; P02469 22-1786; P02468 34-1607) (complex)
binding: binds
